From paper doi:10.1101/2022.07.26.501557
No constants are given. Whether binding was seen depends on the method and setting. Binding seen in cells or lysates may run through a third protein. Binding calls can cover weak binding; strength is not graded here.

Protein sequences, listed by entry. Tags and fused reporters are not part of them. Lines headed by an entry give the natural chain unless they say otherwise; changes in a name come on top.
UniProt Q60751: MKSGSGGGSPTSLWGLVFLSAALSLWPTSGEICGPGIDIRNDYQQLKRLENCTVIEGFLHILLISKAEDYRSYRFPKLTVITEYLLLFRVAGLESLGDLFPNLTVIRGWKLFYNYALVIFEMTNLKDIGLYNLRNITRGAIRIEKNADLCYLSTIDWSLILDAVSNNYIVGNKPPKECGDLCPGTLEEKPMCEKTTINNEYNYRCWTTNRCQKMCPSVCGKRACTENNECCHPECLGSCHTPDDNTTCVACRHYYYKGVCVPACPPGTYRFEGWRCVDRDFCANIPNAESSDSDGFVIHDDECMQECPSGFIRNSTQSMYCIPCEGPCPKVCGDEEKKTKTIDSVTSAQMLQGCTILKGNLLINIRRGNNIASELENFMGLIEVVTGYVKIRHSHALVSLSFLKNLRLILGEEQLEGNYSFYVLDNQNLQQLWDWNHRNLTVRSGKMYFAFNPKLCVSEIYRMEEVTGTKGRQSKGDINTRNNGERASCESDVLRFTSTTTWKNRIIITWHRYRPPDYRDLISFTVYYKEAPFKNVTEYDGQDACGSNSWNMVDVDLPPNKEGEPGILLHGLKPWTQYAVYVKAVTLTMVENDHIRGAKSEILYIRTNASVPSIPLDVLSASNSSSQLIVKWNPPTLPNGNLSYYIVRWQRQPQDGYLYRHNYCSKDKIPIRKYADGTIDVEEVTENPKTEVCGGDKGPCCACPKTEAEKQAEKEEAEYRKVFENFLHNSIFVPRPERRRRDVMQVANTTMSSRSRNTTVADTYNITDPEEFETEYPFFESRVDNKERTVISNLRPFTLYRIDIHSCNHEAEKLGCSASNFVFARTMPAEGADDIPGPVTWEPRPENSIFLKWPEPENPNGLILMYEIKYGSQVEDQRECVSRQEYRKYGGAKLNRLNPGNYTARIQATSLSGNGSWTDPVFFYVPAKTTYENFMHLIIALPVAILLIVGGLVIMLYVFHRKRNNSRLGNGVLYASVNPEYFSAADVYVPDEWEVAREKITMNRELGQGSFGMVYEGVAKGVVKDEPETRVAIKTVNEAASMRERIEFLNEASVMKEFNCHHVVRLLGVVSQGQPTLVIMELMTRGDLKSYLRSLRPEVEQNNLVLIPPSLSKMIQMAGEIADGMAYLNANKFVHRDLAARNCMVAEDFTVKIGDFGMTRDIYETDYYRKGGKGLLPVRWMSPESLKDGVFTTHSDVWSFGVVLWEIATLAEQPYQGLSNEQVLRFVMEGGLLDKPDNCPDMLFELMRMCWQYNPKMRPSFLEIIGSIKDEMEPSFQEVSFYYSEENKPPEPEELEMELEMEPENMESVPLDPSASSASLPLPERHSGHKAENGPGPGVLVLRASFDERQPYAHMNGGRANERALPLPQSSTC

Target: T1, Glypican 1 (mouse (endogenous in mouse colon tumoroids)) (UniProt Q9QZF2)
T1 sequence: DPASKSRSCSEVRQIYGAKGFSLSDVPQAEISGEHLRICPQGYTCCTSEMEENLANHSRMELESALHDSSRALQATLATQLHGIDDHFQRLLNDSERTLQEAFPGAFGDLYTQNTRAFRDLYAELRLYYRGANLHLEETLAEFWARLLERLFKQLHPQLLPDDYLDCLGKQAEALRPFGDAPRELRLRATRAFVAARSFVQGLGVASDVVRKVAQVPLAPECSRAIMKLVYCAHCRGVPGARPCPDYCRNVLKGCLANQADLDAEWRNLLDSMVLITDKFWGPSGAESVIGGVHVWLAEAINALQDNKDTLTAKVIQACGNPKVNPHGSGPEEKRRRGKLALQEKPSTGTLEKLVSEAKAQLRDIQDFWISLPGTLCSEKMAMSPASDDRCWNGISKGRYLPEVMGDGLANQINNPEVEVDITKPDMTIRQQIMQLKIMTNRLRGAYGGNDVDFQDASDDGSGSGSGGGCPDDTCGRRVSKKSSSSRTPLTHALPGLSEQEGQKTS
Assay: co-IP

IGF1Rβ (from UniProt Q60751) (receptor)
binding: binds
